Data published in patent US8946147B2 (priority 2010, dated 2015).
Not every detail of the peptide structures is certain; ends, links or a residue may be inferred.

Chains of the proteins cited; added tags and fusions are not shown. Residues count along the entry.
UniProt P06213, 28-758 limits assumed: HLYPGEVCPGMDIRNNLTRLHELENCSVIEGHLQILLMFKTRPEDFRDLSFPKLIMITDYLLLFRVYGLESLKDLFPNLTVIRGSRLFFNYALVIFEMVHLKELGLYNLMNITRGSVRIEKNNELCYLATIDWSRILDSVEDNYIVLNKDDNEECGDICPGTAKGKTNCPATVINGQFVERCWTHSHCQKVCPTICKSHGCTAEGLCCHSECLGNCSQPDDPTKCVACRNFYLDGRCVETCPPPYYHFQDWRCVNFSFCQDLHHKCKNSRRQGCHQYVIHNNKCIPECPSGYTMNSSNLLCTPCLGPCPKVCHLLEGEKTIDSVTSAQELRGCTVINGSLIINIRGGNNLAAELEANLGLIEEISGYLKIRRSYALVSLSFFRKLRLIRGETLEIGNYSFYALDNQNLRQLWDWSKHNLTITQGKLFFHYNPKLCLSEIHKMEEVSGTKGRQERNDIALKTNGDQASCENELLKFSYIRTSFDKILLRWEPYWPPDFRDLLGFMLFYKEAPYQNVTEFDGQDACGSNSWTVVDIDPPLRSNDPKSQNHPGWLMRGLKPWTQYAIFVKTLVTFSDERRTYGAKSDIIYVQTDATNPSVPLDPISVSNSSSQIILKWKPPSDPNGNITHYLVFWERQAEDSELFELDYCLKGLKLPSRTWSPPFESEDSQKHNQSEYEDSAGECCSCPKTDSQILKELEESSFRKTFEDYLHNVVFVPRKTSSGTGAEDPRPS
UniProt P06213, 763-1382 partner limits assumed: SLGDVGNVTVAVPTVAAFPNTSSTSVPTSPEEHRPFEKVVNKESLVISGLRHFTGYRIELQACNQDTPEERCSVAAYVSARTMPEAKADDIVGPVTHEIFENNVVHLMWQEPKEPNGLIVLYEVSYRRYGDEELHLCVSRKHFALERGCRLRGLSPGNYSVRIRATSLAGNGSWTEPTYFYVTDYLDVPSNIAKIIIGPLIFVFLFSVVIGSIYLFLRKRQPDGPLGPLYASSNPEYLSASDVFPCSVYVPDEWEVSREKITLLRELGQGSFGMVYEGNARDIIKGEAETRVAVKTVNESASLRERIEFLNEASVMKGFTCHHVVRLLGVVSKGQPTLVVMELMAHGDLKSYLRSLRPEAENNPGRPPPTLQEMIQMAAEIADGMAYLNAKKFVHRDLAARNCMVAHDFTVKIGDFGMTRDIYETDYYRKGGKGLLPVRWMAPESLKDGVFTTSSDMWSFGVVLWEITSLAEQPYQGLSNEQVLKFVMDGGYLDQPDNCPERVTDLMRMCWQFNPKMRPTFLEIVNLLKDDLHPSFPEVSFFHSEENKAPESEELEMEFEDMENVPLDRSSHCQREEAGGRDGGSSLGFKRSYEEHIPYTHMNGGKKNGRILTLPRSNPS

Biological target: T1, human insulin receptor (Homo sapiens, UniProt P06213)
T1 construct: expressed in transfected cells; plasma membrane fragments
Assay: Insulin receptor binding assay (scintillation proximity competition)
Settings: relative to native insulin

CC[C@H](C)[C@H](NC(=O)CN)C(=O)N[C@H](C(=O)N[C@@H](CC(=O)O)C(=O)N[C@@H](CCC(=O)O)C(=O)N[C@H]1CSSC[C@@H]2NC(=O)[C@H](CO)NC(=O)[C@H](CCCNC(=N)N)NC(=O)[C@H](Cc3ccccc3)NC(=O)[C@H](CSSC[C@H](NC(=O)[C@H](CC(C)C)NC(=O)[C@@H](NC(=O)[C@H](CCC(=O)O)NC(=O)[C@@H]3CCCN3C(=O)CN)[C@@H](C)O)C(=O)NCC(=O)N[C@@H](C)C(=O)N[C@@H](CCC(=O)O)C(=O)N[C@@H](CC(C)C)C(=O)N[C@@H](C(C)C)C(=O)N[C@@H](CC(=O)O)C(=O)N[C@@H](C)C(=O)N[C@@H](CC(C)C)C(=O)N[C@@H](Cc3ccc(O)cc3)C(=O)N[C@@H](CC(C)C)C(=O)N[C@@H](C(C)C)C(=O)N[C@H](C(=O)NCC(=O)N[C@@H](CC(=O)O)C(=O)N[C@@H](CCCNC(=N)N)C(=O)NCC(=O)N[C@@H](Cc3ccccc3)C(=O)N[C@@H](Cc3ccc(O)cc3)C(=O)N[C@@H](Cc3ccccc3)C(=O)N[C@@H](CC(N)=O)C(=O)N[C@@H](CCCCN)C(=O)N3CCC[C@H]3C(=O)N[C@H](C(N)=O)[C@@H](C)O)CSSC[C@@H](C(=O)N[C@@H](C)C(N)=O)NC(=O)[C@H](Cc3ccc(N)cc3)NC(=O)[C@H](CCSC)NC(=O)[C@H](CCC(=O)O)NC(=O)[C@H](CC(C)C)NC(=O)[C@H](CCCNC(=N)N)NC(=O)[C@H](CCCNC(=N)N)NC(=O)[C@H](CC(C)C)NC(=O)[C@H](CC(=O)O)NC2=O)NC1=O)C(C)C [IGF1(Y^B16L^B17)(p-NH2—F)^A19amide]
insulin receptor binding (in words): specifically binds to the insulin receptor
